Measurements published in PubChem BioAssay AID330 (DTP/NCI, 2004).
The list is a part of this screen's results and no random one: it is rich in T/C values a quarter to a half above the control, in often repeated tests (any T/C) and in doses without a T/C. Further doses and runs are listed elsewhere. T/C is the treated group as % of the vehicle group. Some doses have a count of surviving animals in place of a T/C: the source holds a T/C of zero for them, seemingly a mark for toxic or unscored doses. Some doses without a T/C left all or most animals alive at the check, yet need not have been tolerated: survival well below the control is almost never listed, so the zero probably covers shortened survival too. Counts of survivors are from the toxicity check (mostly the fifth day) where no day follows; animals may have died later. Schedule codes are those of the source, taken here to give the interval after Q, in days (D) or hours (H), and the number of doses after X. Some doses were run more than once; the results are listed from low to high. Where survival is the endpoint, this PubChem deposit counts one and a half times the control or more as active, and values a quarter to a half above the control carry no call in these data; other NCI protocols may use other cut-offs. Some T/C values are followed by the survivors on the day toxicity was checked, most often the fifth; without a count, all were alive then.

Test system: P388 leukemia ip, CD2F1 mice, survival T/C
Test: NCI In Vivo Anticancer Drug Screen. Data for tumor model P388 Leukemia (intraperitoneal) in CD2F1 (CDF1) mice
Details: T/C endpoint: median survival time, higher T/C = longer survival
[1] = dose: 200.0 mg/kg/injection, schedule: Q01DX009 (ip), vehicle: saline with Tween-80
[2] = dose: 50.0 mg/kg/injection, schedule: Q01DX009 (ip), vehicle: saline with Tween-80
[3] = dose: 100.0 mg/kg/injection, schedule: Q01DX009 (ip), vehicle: saline with Tween-80
[4] = dose: 50.0 mg/kg/injection, schedule: Q01DX009 (ip), vehicle: water
[5] = dose: 100.0 mg/kg/injection, schedule: Q01DX005 (ip), vehicle: saline with Tween-80
[6] = dose: 200.0 mg/kg/injection, schedule: Q01DX005 (ip), vehicle: saline with Tween-80
[7] = dose: 12.5 mg/kg/injection, schedule: Q01DX009 (ip), vehicle: saline with Tween-80
[8] = dose: 25.0 mg/kg/injection, schedule: Q01DX009 (ip), vehicle: saline with Tween-80

CCOC(=O)CCC(C)(C#N)C(C#N)C(=O)OCC (stereo not drawn)
survivor count [1]: 6 of 6

O=C(N=Nc1c(Cl)c(O)c2ccccc2c1O)C(F)(F)F
survivor count [2]: 3 of 6
survivor count [3]: 0 of 6
survivor count [1]: 0 of 6

O=NNc1ccc2ccccc2n1
T/C (dose: 3.12 mg/kg/injection, schedule: Q01DX009 (ip), vehicle: water): 126 % of control
T/C (dose: 6.25 mg/kg/injection, schedule: Q01DX009 (ip), vehicle: water): 128 and 129 % of control
T/C (dose: 12.5 mg/kg/injection, schedule: Q01DX009 (ip), vehicle: water): 128 and 134 % of control
survivor count [4]: 4 of 6 and 6 of 6

CCC(CC)(C(=O)Nc1ccc2nc(C)cc(N)c2c1)C(=O)Nc1ccc2nc(C)cc(N)c2c1
survivor count [5]: 5 of 5

O=C1C=C(N(CCCl)CCCl)C(=O)C=C1N(CCCl)CCCl
T/C (dose: 100.0 mg/kg/injection, schedule: Q04DX003 (ip), vehicle: Klucel (hydroxypropylcellulose) (HPC)): 142 % of control [5 of 6 alive]

CCCCCCNC(C)C
survivor count (dose: 200.0 mg/kg/injection, schedule: Q01DX005 (ip), vehicle: saline): 0 of 6

N#CN(Cc1ccccc1)C(c1ccccc1)(c1ccccc1)c1ccccc1.[I][Sn]([c]1ccccc1)([c]1ccccc1)[c]1ccccc1
survivor count (dose: 12.5 mg/kg/injection, schedule: Q01DX005 (ip), vehicle: saline with Tween-80): 3 of 6
survivor count (dose: 50.0 mg/kg/injection, schedule: Q01DX005 (ip), vehicle: saline with Tween-80): 0 of 6
survivor count [5]: 0 of 6
survivor count [6]: 0 of 6

CC1=CC(C)(C)Nc2ccc(CSc3ccccc3)cc21
T/C (dose: 100.0 mg/kg/injection, schedule: Q01DX009 (ip), vehicle: DMSO): 126 % of control
T/C (dose: 200.0 mg/kg/injection, schedule: Q01DX009 (ip), vehicle: DMSO): 127 % of control [5 of 6 alive]

O=C(Nc1nc2ccc([N+](=O)[O-])cc2s1)C(F)(F)C(F)(F)F
survivor count [2]: 4 of 6
survivor count [3]: 0 of 6
survivor count [1]: 0 of 6

CCOc1c(N=Nc2ccc(Cl)cc2Cl)c(C)nn1C(N)=S
survivor count (dose: 60.0 mg/kg/injection, schedule: Q01DX005 (ip), vehicle: Klucel (hydroxypropylcellulose) (HPC)): 0 of 6 and 2 of 6
survivor count (dose: 120.0 mg/kg/injection, schedule: Q01DX005 (ip), vehicle: Klucel (hydroxypropylcellulose) (HPC)): 0 of 6
survivor count (dose: 240.0 mg/kg/injection, schedule: Q01DX005 (ip), vehicle: Klucel (hydroxypropylcellulose) (HPC)): 0 of 6

Nc1nc(=S)c2ncn(C3OC(COC(=O)c4ccc(Cl)cc4)C(OC(=O)c4ccc(Cl)cc4)C3OC(=O)c3ccc(Cl)cc3)c2[nH]1 (stereo not drawn)
T/C [2]: 136 % of control
T/C [3]: 145 % of control
T/C (dose: 100.0 mg/kg/injection, schedule: Q04DX003 (ip), vehicle: saline with Tween-80): 136 % of control
T/C (dose: 300.0 mg/kg/injection, schedule: Q04DX003 (ip), vehicle: saline with Tween-80): 133 % of control

Cc1cc2nc(C(C)C(=O)c3ccc(Cl)cc3)c(=O)[nH]c2cc1C (stereo not drawn)
survivor count (dose: 15.0 mg/kg/injection, schedule: Q01DX005 (ip), vehicle: saline with Tween-80): 6 of 6
survivor count (dose: 30.0 mg/kg/injection, schedule: Q01DX005 (ip), vehicle: saline with Tween-80): 6 of 6
survivor count (dose: 60.0 mg/kg/injection, schedule: Q01DX005 (ip), vehicle: saline with Tween-80): 6 of 6
survivor count (dose: 120.0 mg/kg/injection, schedule: Q01DX005 (ip), vehicle: saline with Tween-80): 6 of 6
survivor count (dose: 240.0 mg/kg/injection, schedule: Q01DX005 (ip), vehicle: saline with Tween-80): 6 of 6

O=C(O)CSc1nc(-c2ccccc2)c(-c2ccccc2)n1-c1ccccn1
T/C [4]: 127 % of control

NNC(=O)CCSC(=O)Nc1ccccc1
survivor count [6]: 0 of 5

CCCOC1=C(N2CC2)C(=O)C(OCCC)=C(N2CC2)C1=O
T/C (dose: 1.33 mg/kg/injection, schedule: Q01DX009 (ip), vehicle: saline with Tween-80): 126 % of control
T/C (dose: 2.0 mg/kg/injection, schedule: Q01DX009 (ip), vehicle: saline with Tween-80): 135 % of control
T/C (dose: 2.66 mg/kg/injection, schedule: Q01DX009 (ip), vehicle: saline with Tween-80): 145 % of control
T/C [7]: 136 % of control
survivor count [8]: 3 of 6

Cc1ccc(S(=O)(=O)N/N=C/C(Br)=C(/Br)C(=O)O)cc1
T/C (dose: 12.5 mg/kg/injection, schedule: Q01DX009 (ip), vehicle: distilled water + Tween-80): 136 and 137 % of control
survivor count (dose: 400.0 mg/kg/injection, schedule: Q01DX009 (ip), vehicle: distilled water + Tween-80): 1 of 6

CCSc1ncc(Br)c(Sc2nc(N)nc3nc[nH]c23)n1
T/C (dose: 8.0 mg/kg/injection, schedule: Q04DX003 (ip), vehicle: saline with Tween-80): 127 % of control
T/C [7]: 127 % of control
T/C (dose: 16.0 mg/kg/injection, schedule: Q04DX003 (ip), vehicle: saline with Tween-80): 145 % of control
T/C [8]: 140 % of control
T/C (dose: 37.5 mg/kg/injection, schedule: Q04DX003 (ip), vehicle: saline with Tween-80): 140 % of control
survivor count [2]: 6 of 6
T/C (dose: 50.0 mg/kg/injection, schedule: Q04DX003 (ip), vehicle: saline with Tween-80): 145 % of control
survivor count [3]: 6 of 6

CC(=O)N(C)N=NCCCl
T/C (dose: 52.5 mg/kg/injection, schedule: Q01DX005 (ip), vehicle: saline with Tween-80): 147 % of control
survivor count (dose: 105.0 mg/kg/injection, schedule: Q01DX005 (ip), vehicle: saline with Tween-80): 5 of 6
survivor count (dose: 210.0 mg/kg/injection, schedule: Q01DX005 (ip), vehicle: saline with Tween-80): 6 of 6

Clc1ccc(C(c2ccc(Cl)cc2)C(Cl)(Cl)Cl)cc1
survivor count [3]: 6 of 6
survivor count [1]: 6 of 6

[Cu+].[NH-]CCCN=Cc1ccccc1O
survivor count (dose: 100.0 mg/kg/injection, schedule: Q01DX001 (ip), vehicle: saline sonified): 3 of 6

CCOC(=O)C(Cc1ccc(N(CCCl)CCCl)cc1)NC(=O)C(Cc1ccccc1)NC=O (stereo not drawn)
T/C [7]: 145 % of control
survivor count (dose: 400.0 mg/kg/injection, schedule: Q04DX003 (ip), vehicle: saline with Tween-80): 4 of 6

CN1[C@@H](CC(=O)c2ccccc2)CCC[C@H]1CC(=O)c1ccccc1
survivor count (dose: 200.0 mg/kg/injection, schedule: Q01DX009 (ip), vehicle: saline): 1 of 6
